EP4786499A1 (Guangdong Fapon Biopharma Inc., dated 2026)

Molecular target: cyno PD-1 (cyno)
Experiment: FACS on CHO/cyno PD-1 cells

B1: anti-PD1 antibody R1152 (antibody, human IgG1, kappa, L234A L235A, V domains shown)
VH: QVQLVQSGAEVKKPGASVKVSCKASGYTFTTYYMYWVRQAPGQGLEWMGGINPSNGGTNYAQKFQGRATMTVDTSTSTAYMELSSLRSEDTAVYYCTRRDSNYDGGFDYWGQGTTVTVSS
VL: DIQMTQSPSSLSASVGDRVTITCRASKSVSTSGYSYMHWYQQKPGKAPKLLIYLAYHLESGVPSRFSGSGSGTDFTLTISSLQPEDFATYYCQHSWELPITFGQGTKLEIKR
notes: also called PD1 monoclonal antibody R1152; PD-1 parent antibody
binding: binds

These are yes or no findings as the source states them, for the method shown. Binding calls can cover weak binding; strength is not graded here.
